Results published in article PMC5507068.
Results are given in words; binding and its absence hold for the method and conditions named. Binding seen in cells or lysates may run through a third protein. Some entries that bind do so weakly or less than the wild type. For some assays here: Sequences can lack the tags named with a protein.

Amino acid sequences for entries named in this document (tags omitted).
UniProt P04198: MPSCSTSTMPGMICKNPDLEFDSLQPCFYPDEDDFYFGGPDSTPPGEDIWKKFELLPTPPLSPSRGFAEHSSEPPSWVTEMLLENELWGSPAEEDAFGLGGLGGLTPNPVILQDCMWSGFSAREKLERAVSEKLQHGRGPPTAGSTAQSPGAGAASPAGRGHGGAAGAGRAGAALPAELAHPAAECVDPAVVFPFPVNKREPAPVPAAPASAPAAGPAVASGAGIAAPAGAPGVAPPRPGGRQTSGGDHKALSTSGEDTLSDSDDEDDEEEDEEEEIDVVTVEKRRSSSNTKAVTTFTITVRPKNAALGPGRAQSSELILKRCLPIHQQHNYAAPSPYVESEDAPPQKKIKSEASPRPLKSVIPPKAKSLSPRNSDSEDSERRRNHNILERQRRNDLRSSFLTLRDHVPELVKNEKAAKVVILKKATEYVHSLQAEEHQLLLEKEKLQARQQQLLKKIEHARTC

Columns and labels:
V5-tagged MYCN = V5-tagged MYCN (UniProt P04198); assay: co-IP; V5-MYCN and Flag-EYA1 co-transfected into HEK293TN cells; whole cell lysate two days post-transfection; IP with anti-V5 antibody, western blot with anti-Flag antibody
[1] = biological target: endogenous MYCN (human (endogenous in KELLY)) (UniProt P04198); assay: co-IP; nuclear extract of KELLY cells; IP with anti-MYCN antibody, immunoblot with anti-EYA1 antibody; endogenous proteins

binding (V5-tagged MYCN)	binding [1]	Binder
binds		Flag-tagged EYA1 (protein, UniProt Q99502 1-592) MEMQDLTSPHSRLSGSSESPSGPKLGNSHINSNSMTPNGTEVKTEPMSSSETASTTADGSLNNFSGSAIGSSSFSPRPTHQFSPPQIYPSNRPYPHILPTPSSQTMAAYGQTQFTTGMQQATAYATYPQPGQPYGISSYGALWAGIKTEGGLSQSQSPGQTGFLSYGTSFSTPQPGQAPYSYQMQGSSFTTSSGIYTGNNSLTNSSGFNSSQQDYPSYPSFGQGQYAQYYNSSPYPAHYMTSSNTSPTTPSTNATYQLQEPPSGITSQAVTDPTAEYSTIHSPSTPIKDSDSDRLRRGSDGKSRGRGRRNNNPSPPPDSDLERVFIWDLDETIIVFHSLLTGSYANRYGRDPPTSVSLGLRMEEMIFNLADTHLFFNDLEECDQVHIDDVSSDDNGQDLSTYNFGTDGFPAAATSANLCLATGVRGGVDWMRKLAFRYRRVKEIYNTYKNNVGGLLGPAKREAWLQLRAEIEALTDSWLTLALKALSLIHSRTNCVNILVTTTQLIPALAKVLLYGLGIVFPIENIYSATKIGKESCFERIIQRFGRKVVYVVIGDGVEEEQGAKKHAMPFWRISSHSDLMALHHALELEYL
	binds	endogenous EYA1 (protein, UniProt Q99502 1-592) MEMQDLTSPHSRLSGSSESPSGPKLGNSHINSNSMTPNGTEVKTEPMSSSETASTTADGSLNNFSGSAIGSSSFSPRPTHQFSPPQIYPSNRPYPHILPTPSSQTMAAYGQTQFTTGMQQATAYATYPQPGQPYGISSYGALWAGIKTEGGLSQSQSPGQTGFLSYGTSFSTPQPGQAPYSYQMQGSSFTTSSGIYTGNNSLTNSSGFNSSQQDYPSYPSFGQGQYAQYYNSSPYPAHYMTSSNTSPTTPSTNATYQLQEPPSGITSQAVTDPTAEYSTIHSPSTPIKDSDSDRLRRGSDGKSRGRGRRNNNPSPPPDSDLERVFIWDLDETIIVFHSLLTGSYANRYGRDPPTSVSLGLRMEEMIFNLADTHLFFNDLEECDQVHIDDVSSDDNGQDLSTYNFGTDGFPAAATSANLCLATGVRGGVDWMRKLAFRYRRVKEIYNTYKNNVGGLLGPAKREAWLQLRAEIEALTDSWLTLALKALSLIHSRTNCVNILVTTTQLIPALAKVLLYGLGIVFPIENIYSATKIGKESCFERIIQRFGRKVVYVVIGDGVEEEQGAKKHAMPFWRISSHSDLMALHHALELEYL
